# The whole screen tested about 400,000 compounds, of which about 13,000 (3.2%) were called active. Inconclusive results, whose numbers are uncertain, are shown with a selection of clear calls. Calls follow the shape of the dose curve; as a rule, active = well fitted cell-killing curve with a large enough effect; inconclusive = small, poorly fitted or top-dose-only effect, or effect the other way; inactive = flat fitted curve, though single readings scatter. Where the call is inconclusive, the potency comes from a doubtful curve fit.
# Experiment: qHTS assay for MDR1-selective chemotherapeutics: Primary screen using the drug-selected MDR subline cells KB-V1; also: nearly all actives have a fitted effect of over 60% in size
# Conditions: KB-V1 MDR cells viability, CellTiter-Glo, 72 h; activity change, negative = cytotoxicity: at 46.1 µM (top of the series)
# Method in brief: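 Compound-treated KB-V1 multidrug-resistant cells, 72 h, 37 degrees C; viability by CellTiter-Glo. Fitted qHTS curves give the values.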
# % is scaled to controls: 0 for no effect and ±100 for the full control effect; potency is read from the fitted curve at half-maximal effect.
SMILES,"activity change, negative = cytotoxicity",Potency
O=C(CSc1nc2ncccc2[nH]1)c1cccc([N+](=O)[O-])c1,inconclusive: 63.5%,–
COc1ccc2cc(S(=O)(=O)N3CCCC3)ccc2c1,inactive: -8.33%,–
O=C(c1cc(-c2ccncc2)nc2ccc(Br)cc12)N1CCN(Cc2ccc3c(c2)OCO3)CC1,–,"inconclusive: 18.4 µM [cytotoxic, partial curve]"
O=C(c1cccc(Br)c1)c1conc1C(=O)c1ccco1,–,"inconclusive: 20.6 µM [rising, single point]"
COc1cccc2oc3ccc(C#CC4(N)CCCCC4)cc3c(=O)c12,–,"inconclusive: 29.1 µM [cytotoxic, single point]"
CCOc1ccc(N(C(=O)c2ccccc2Cl)C2=NC(C)(C)CS2)cc1,–,"inconclusive: 20.6 µM [cytotoxic, single point]"
Cn1c(=O)n(C)c2cc(NS(=O)(=O)c3ccc4c(c3)CCCC4)ccc21,–,active: 9.2 µM
CCN(Cc1nc2ccccc2c(=O)[nH]1)C(=O)c1cc2c(s1)CCCCC2,–,"inconclusive: 20.6 µM [cytotoxic, partial curve, poor fit]"
COc1ccc(-n2ncc(C(=O)Nc3ccc(C)cc3Cl)c2C2CCN(C(=O)OC(C)(C)C)CC2)cc1,inactive: 12.6%,–
Cc1ccc(Sc2cnccc2C#N)cc1,inactive: -9.72%,–
CCN(CC(=O)Nc1ccc(S(=O)(=O)N2CCCCC2)cc1)Cc1ccccc1,–,"inconclusive: 8.2 µM [cytotoxic, partial curve]"
COCn1c(=O)c2c(nc(SC3=NCCS3)n2Cc2ccccc2C)n(COC)c1=O,–,"inconclusive: 8.2 µM [cytotoxic, partial curve, poor fit]"
COc1ccccc1NC(=O)c1nnn(Cc2ccccc2)c1NC(=O)C(F)(F)F,–,active: 20.6 µM
COc1ccc(NC(=O)c2cc3c(CO)cnc(C)c3oc2=Nc2cc(OC)cc(OC)c2)cc1,inactive: 1.09%,–
CCCc1nn(C)c(C(=O)Nc2ccccc2)c1Cl,–,active: 18.4 µM
COc1ccc(-c2csc3ncn(-c4cccc(C)c4)c(=O)c23)cc1OC,inconclusive: -0.944%,–
COc1cccc(-n2nnc3c(=O)n(CC(=O)NC4CCCC4)cnc32)c1,–,"inconclusive: 16.4 µM [cytotoxic, single point]"
COc1ccc(N2CC(NC(=O)c3cccs3)CC2=O)cc1OC (centres undefined),inactive: 3.52%,–
COC(=O)N/N=C/c1cccc(OCCSc2ccc(Cl)cc2)c1,inactive: -15.2%,–
COc1ccc(OC)c(N(CC(=O)NC2CCCC2)S(=O)(=O)c2ccc(OC)c(OC)c2)c1,–,"inconclusive: 16.4 µM [cytotoxic, single point]"
O=S(=O)(N[C@H](CO)Cc1ccccc1)c1ccc(Br)cc1F,–,"inconclusive: 25.9 µM [rising, single point]"
COc1cccc(NC(=S)NN2CCN(C)CC2)c1,inactive: -9.49%,–
CC(C)CC(=NNC(=O)c1ccncc1)c1cc(Cl)ccc1O,–,"inconclusive: 5.17 µM [cytotoxic, partial curve]"
Cc1ccccc1CC1(CO)CCCN(C(=O)c2ccoc2)C1 (centres undefined),inactive: -15.8%,–
COc1ccc(C2CC(c3ccc(Cl)cc3)=NN2C(=O)c2cccc([N+](=O)[O-])c2)cc1 (centres undefined),–,"inconclusive: 6.51 µM [cytotoxic, partial curve]"

SMILES,"activity change, negative = cytotoxicity",Potency
COc1ccc(NC(=O)c2cnn(-c3ccccc3)c2C)cc1,–,"inconclusive: 8.2 µM [cytotoxic, partial curve]"
Cc1ccnc(NC(=S)NC(=O)/C=C/c2ccco2)c1,–,active: 8.2 µM
Cc1ccc(N2CCN(C3C(=O)Nc4ccccc4-n4nnnc43)CC2)cc1 (centres undefined),–,"inconclusive: 14.6 µM [cytotoxic, single point]"
O=C(O)c1ccccc1-c1cn2cc(Cl)ccc2n1,inactive: 3.27%,–
COC(=O)/C(=N/Nc1ccccc1)N1CCCc2ccccc21,–,active: 20.6 µM
Cc1cccc(C)c1NC(=O)C(CCc1ccccc1)n1c(=O)c(-c2cc3ccccc3[nH]2)nc2ccccc21 (centres undefined),–,active: 20.6 µM
C=CCn1c(=O)c2c(nc(Br)n2Cc2ccccc2Cl)n(C)c1=O,–,"inconclusive: 20.6 µM [cytotoxic, partial curve]"
C=CCSc1ncnc2c1oc1nc3c(cc12)COC(C)(C)C3,–,"inconclusive: 29.1 µM [cytotoxic, single point]"
O=C(NCCCCNC(=O)C1CCCC1)C1CCCC1,inactive: -7.72%,–
CC(=O)COC(=O)C1=NN(c2ccccc2)C(=O)CC1,–,"inconclusive: 29.1 µM [rising, single point]"
COC(=O)c1cc(NC(=O)Nc2cccc(Cl)c2)ccc1Cl,–,active: 23.1 µM
COc1cc(NC(=O)COc2ccc([N+](=O)[O-])cc2)ccc1NC(=O)c1ccco1,inactive: -11.6%,–
Cc1ccc(-c2cn3cccnc3n2)cc1NC(=O)c1ccc(Br)o1,inactive: 2.19%,–
CSc1ccc(S(=O)(=O)Nc2c(C)n(C)n(-c3ccccc3)c2=O)cc1,inactive: 15.5%,–
O=S(=O)(Nc1nc(CN2CCOCC2)nc2sc3c(c12)CCCC3)c1cc(F)ccc1F,–,active: 10.3 µM
O=C(CSc1ncnc2nc[nH]c12)c1ccccc1,–,"inconclusive: 18.4 µM [cytotoxic, single point]"
CS(=O)(=O)N(Cc1ccc(Cl)cc1)c1ccc(C(=O)NCCSCc2ccco2)cc1,–,"inconclusive: 17.8 µM [cytotoxic, single point]"
O=C(NCc1ccc2c(c1)OCO2)C(=O)NCC1OCCCN1S(=O)(=O)c1ccc(F)cc1 (centres undefined),inactive: -17%,–
Cc1ccc2nc(NC(=O)c3cc(-c4ccco4)nc4ccccc34)sc2c1,–,"inconclusive: 29.1 µM [cytotoxic, single point]"
Cc1ccc(NC2=Nc3ccccc3CC2)cc1,inactive: -14.8%,–
CC(=O)c1sc(NC(=O)CCOc2ccccc2)nc1C,–,"inconclusive: 29.1 µM [rising, single point]"
COCCCn1c(=N)c(S(=O)(=O)c2ccccc2)cc2c(=O)n3cccc(C)c3nc21,–,"inconclusive: 4.61 µM [cytotoxic, full curve]"
Cn1ncc2c(O/N=C(\N)c3ccc(C(C)(C)C)cc3)ncnc21,–,active: 13 µM
CCNc1ccc(C(=O)OCC(=O)c2cc(C)n(Cc3ccc4c(c3)OCO4)c2C)cc1[N+](=O)[O-],–,"inconclusive: 23.1 µM [cytotoxic, single point]"
Cc1ccc(OCC(O)CN2CCN(Cc3ccc4c(c3)OCO4)CC2)cc1C (centres undefined),–,"inconclusive: 18.4 µM [cytotoxic, partial curve, poor fit]"

# 3 entries picked at random from the list so far, as already listed:
SMILES,"activity change, negative = cytotoxicity",Potency
O=C(O)c1ccccc1-c1cn2cc(Cl)ccc2n1,inactive: 3.27%,–
Cc1ccc(NC2=Nc3ccccc3CC2)cc1,inactive: -14.8%,–
Cc1ccc2nc(NC(=O)c3cc(-c4ccco4)nc4ccccc34)sc2c1,–,"inconclusive: 29.1 µM [cytotoxic, single point]"

# Continuation.

SMILES,"activity change, negative = cytotoxicity",Potency
CCOc1ccc(NC(=O)CN(C)S(=O)(=O)c2ccc3c(c2)CCC(=O)N3)cc1,–,"inconclusive: 25.9 µM [rising, single point]"
COc1ccc2c(c1)[nH]c1c(=O)n(CCc3cnc[nH]3)cnc12,inactive: -0.944%,–
O=C(CN(Cc1cccs1)C(=O)CN1C(=O)COc2ccccc21)NCc1ccco1,–,active: 13 µM
COc1ccc(C2=NOC(C(=O)NCc3cccs3)C2)cc1OC (centres undefined),–,active: 5.17 µM
CC(/C=N/NC(=O)Cc1cccn1C)=C\c1ccccc1,–,active: 16.4 µM
COc1ccc(OCCCn2c(CCNC(=O)C3CCCCC3)nc3ccccc32)cc1,inactive: -21.3%,–
CCCCn1c(N)c(N(CC(C)C)C(=O)c2ccc(S(=O)(=O)N3CCC(C)CC3)cc2)c(=O)[nH]c1=O,–,"inconclusive: 16.4 µM [rising, single point]"
Cc1ccc(S(=O)(=O)n2ccc3c(OCCOCCNCc4ccc(F)cc4)cccc32)cc1,–,"inconclusive: 25.9 µM [cytotoxic, single point]"
Oc1ccc(C=Nc2ccc(N3CCOCC3)cc2)c(O)c1,–,"inconclusive: 29.1 µM [rising, single point]"
COc1ccc(Oc2nc(C)cc(C)c2S(=O)(=O)c2ccc(C)cc2)cc1,–,active: 20.6 µM
CCn1cc2nc(SCc3cc(C)ccc3C)n(Cc3ccc(C)cc3)c(=O)c2n1,inactive: -4.04%,–
O=C(Nc1nccs1)c1cn(-c2ccccc2)nc1-c1ccccc1,–,"inconclusive: 9.2 µM [cytotoxic, partial curve, poor fit]"
CCOC(=O)c1cc2c(=O)n3ccccc3nc2n(Cc2ccco2)c1=NC(=O)c1ccccc1OCC,inactive: -27.1%,–
CC(=O)c1nn(-c2ccccc2)cc1C(=O)c1cccc(Br)c1,inactive: -16.1%,–
COc1ccc(CCNC(=O)CN2CCN(c3cccc(Cl)c3)CC2)cc1OC,–,"inconclusive: 13 µM [cytotoxic, single point]"
CC(NC(=O)CCNC(=O)c1ccc(Br)cc1)c1ccc(-n2ccnc2)cc1 (centres undefined),–,"inconclusive: 16.4 µM [rising, single point]"
CCOC(=O)CC(=O)CSc1nc(C)cc(C)c1C#N,–,"inconclusive: 23.1 µM [rising, single point]"
C[n+]1ccccc1Nc1cc([N+](=O)[O-])ccc1N,–,"inconclusive: 32.6 µM [rising, single point]"
C(=C\c1ccccc1)/CSc1nnc(-c2cnccn2)n1Cc1ccco1,–,"inconclusive: 18.4 µM [cytotoxic, single point]"
COc1ccc2nc(SC(C)C(=O)NC3(C#N)CCCCC3)[nH]c2c1 (centres undefined),–,"inconclusive: 4.11 µM [cytotoxic, full curve, poor fit]"
O=C(Nc1ccccc1)N(CCN1CCOCC1)Cc1cccc(Cl)c1,–,"inconclusive: 20.6 µM [cytotoxic, single point]"
Cc1cccc(/C=N/NC(=O)c2cc3c(s2)-c2ccccc2CC3)c1,–,"inconclusive: 29.1 µM [cytotoxic, single point]"
Cc1cccc(OCc2cc(-c3ccccc3)no2)c1C,–,"inconclusive: 29.1 µM [rising, single point]"
Nc1nnc(CSCc2cccc(Br)c2)s1,–,"inconclusive: 0.731 µM [rising, full curve, poor fit]"

# Reference: PubChem BioAssay AID1347076 (National Center for Advancing Translational Sciences (NCATS), 2019)
